Earlier results, collected in US20080262071A1 (priority 2004, published 2008).

Conditions: PMS subjects; cited from earlier work

In the case of `CC(C)NCC(O)COc1ccc(CC(N)=O)cc1` (stereo not shown) [atenolol], the “irritability, vigor, elation and friendliness ratings” value is given as “significant improvements”.
